Assay results reported in US9625458B2, “Biosensor” (priority 2002, dated 2017).

Assay: Fluorescence emission spectra without and with saturating ligand (wavelength shift, ΔIstd, ΔRmax)
Details: for λmax,apo (nm): absence of ligand; for ΔIstd: standard intensity change; for ΔIstd / ΔRmax: unbound vs ligand-saturated; for ΔRmax: standard ratiometric change
Description: Fluorimetry. All measurements were conducted with an SLM Aminco-Bowman series 2 fluorimeter, with sample stirring at 25° C. Fluorescence emission spectra were acquired with excitation and emission slit widths of 4 and 8 nm, respectively. Photomultiplier tube potential was maintained between 400 and 800 volts. Protein concentrations were in the range of 50 to 1000 nM. Fluorophore-specific excitation was at the following approximate wavelengths: tryptophan, 290 nm; acrylodan, 390 nm; fluorescein, 485 nm; pyrene, 340 nm; NBD and NBDE, 490 nm; JPW4039, 485 nm; JPW4042, 470 nm; JPW4045, 470 nm.
Assessment of fluorescent biosensor function. Fluorescence emission spectra of bPBP-fluorophore conjugates were recorded in the absence and presence of saturating ligand concentrations. Spectral changes were characterized by four parameters: wavelength shift (the difference between the wavelengths of emission maximum in the unbound and ligand-saturated states), direction of intensity change (increase or decrease in intensity at the wavelengths of maximum emission in the two states), standard intensity change (ΔIstd), and standard ratiometric change (ΔR). ΔIstd is defined as the normalized intensity change relative to the average intensity, determined at the wavelength mid-point between the two emission maxima:
[formula] where λstd=(λmax, unbound+λmax, saturated)/2 and I1, I2 are the fluorescence intensities at λstd of each spectrum respectively (FIG. 4A). ΔR is defined in terms of two emission bands, A1 ([λ1, λ2]) and A2 ([λ3, λ4]) (FIG. 4B):
[formula] where ^∘A1, […] the areas in the absence of ligand, and ^∞A1, ^∞A2 the areas in the presence of saturating ligand. A computer program was used to enumerate ΔR for all possible pairs of wavelength bands in the two spectra, to identify the optimal sensing condition, defined as the maximum value of ΔR. Adjustable parameters of the algorithm, and their values used for ΔRmax quantities reported here, are: step size (2 nm), step width (10 nm), minimum integration area limit (fraction of total: 0.1), and maximum integration area limit (fraction of total: 1).

[1] = emission maximum, saturating ligand (ligand column)
[2] = wavelength of emission maximum, saturating ligand

Row | Substance | λmax,apo (nm) (emission maximum) | λmax,sat (nm) [1] | ΔIstd | ΔRmax | ΔRmax (maximum standard ratiometric change) (apo vs saturating ligand, optimal pair of emission bands) | λmax,apo (nm) (wavelength of emission maximum) | λmax,sat (nm) [2]
1 | glucose BP W183C Acrylodan | 483 | 504 | 0.73 | 5.57 |  |  | 
2 | glucose BP W183C Fluorescein | 525 | 521 | 0.10 | 1.16 |  |  | 
3 | glucose BP W183C NBD | 547 | 546 | 0.13 | 0.14 |  |  | 
4 | glucose BP W183C-acrylodan: glucose BP endosteric-site W183C mutant conjugated to acrylodan |  |  |  |  | 5.57 |  | 
5 | glucose BP Y10C Fluorescein | 521 | 521 | 0.43 | 1.22 |  |  | 
6 | sulfate BP L65C Pyrene |  |  |  |  |  | 386 | 385
7 | sulfate BP Q294C Pyrene |  |  |  |  |  | 384 | 384
8 | sulfate BP R134C Pyrene |  |  |  |  |  | 382 | 386
9 | sulfate BP W290C Pyrene |  |  |  |  |  | 384 | 384
10 | sulfate BP Y67C Pyrene |  |  |  |  |  | 383 | 383
